In publication PMC8013833:
These are yes or no findings as the source states them, for the method shown. In cells and extracts the contact can be indirect. Some entries that bind do so weakly or less than the wild type.

By UniProt entry, the sequences of proteins in these tests, tags left out.
UniProt Q9WTL8: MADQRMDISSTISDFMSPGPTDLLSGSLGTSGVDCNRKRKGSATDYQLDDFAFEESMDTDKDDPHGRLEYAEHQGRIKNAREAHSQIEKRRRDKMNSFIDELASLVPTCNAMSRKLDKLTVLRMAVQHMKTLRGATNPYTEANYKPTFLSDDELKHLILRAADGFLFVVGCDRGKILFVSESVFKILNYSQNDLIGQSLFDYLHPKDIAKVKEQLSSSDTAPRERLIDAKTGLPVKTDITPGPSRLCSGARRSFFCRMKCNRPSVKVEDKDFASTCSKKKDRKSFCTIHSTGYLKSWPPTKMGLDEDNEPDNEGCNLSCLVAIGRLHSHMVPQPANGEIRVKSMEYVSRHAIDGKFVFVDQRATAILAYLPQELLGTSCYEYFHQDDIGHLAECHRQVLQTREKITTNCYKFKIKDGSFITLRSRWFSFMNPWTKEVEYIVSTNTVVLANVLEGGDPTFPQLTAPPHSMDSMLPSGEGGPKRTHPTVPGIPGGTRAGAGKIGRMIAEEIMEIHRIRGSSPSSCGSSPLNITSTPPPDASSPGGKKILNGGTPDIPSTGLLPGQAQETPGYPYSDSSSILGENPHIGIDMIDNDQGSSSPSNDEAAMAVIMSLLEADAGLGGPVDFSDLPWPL
UniProt Q8BSK8: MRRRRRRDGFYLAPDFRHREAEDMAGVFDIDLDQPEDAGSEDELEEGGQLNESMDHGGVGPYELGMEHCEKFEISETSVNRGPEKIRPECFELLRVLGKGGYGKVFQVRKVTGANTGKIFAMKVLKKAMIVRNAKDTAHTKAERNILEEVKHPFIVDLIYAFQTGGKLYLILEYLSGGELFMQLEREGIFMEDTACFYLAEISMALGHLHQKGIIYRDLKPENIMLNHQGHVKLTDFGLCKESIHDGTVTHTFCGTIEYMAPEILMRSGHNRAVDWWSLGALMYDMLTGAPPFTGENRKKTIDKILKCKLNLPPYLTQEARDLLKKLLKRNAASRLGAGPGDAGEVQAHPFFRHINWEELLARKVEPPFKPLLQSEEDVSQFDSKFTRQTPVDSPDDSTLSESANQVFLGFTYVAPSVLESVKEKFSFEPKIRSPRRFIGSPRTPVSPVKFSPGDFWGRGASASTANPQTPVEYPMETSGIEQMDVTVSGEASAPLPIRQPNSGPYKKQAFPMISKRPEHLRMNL

Columns and labels:
[1] = target: BMAL1 (mouse (endogenous in mouse adult lung fibroblasts)) (UniProt Q9WTL8); assay: co-IP; WT cells synchronised by a 2-h dexamethasone pulse and harvested 12 and 24 h after the medium change; BMAL1 immunoprecipitated, Western blot for BMAL1, S6K and eIF4
[2] = target: BMAL1 (mouse (endogenous in mouse adult lung fibroblasts)) (UniProt Q9WTL8); assay: condition: only in cells without CRY1 and CRY2 (CKO); co-IP; CRY-deficient (CKO) cells synchronised by a 2-h dexamethasone pulse and harvested 12 and 24 h after the medium change; BMAL1 immunoprecipitated, Western blot for BMAL1, S6K and eIF4

With S6K1 (from UniProt Q8BSK8 1-525) the binding [1] was “binds” and the binding [2] was “no binding”.
